Construct, isoform or probe ends are uncertain for at least one entry. A negative result means that nothing was seen under these conditions.
Test system: TaHsfA1 (Triticum aestivum)
Experiment: EMSA
Conditions: LightShift Chemiluminescent EMSA Kit, manufacturer's instructions; 10-, 100- and 1000-fold unlabeled competitor; pH and temperature not stated; recombinant protein; protein details: N-terminal GST (pGEX-4T-1); label: 5'-biotin

Sequence: AAGTGATATTTGAGAGAAAATTCCTTATTTGACACTATCTTAA (double strand) [HSE3 probe]
- binding result: no binding

Sequence: CGGCCCCGGCGTCCAGAAGCTTCCGAGCCGGCCGGTCACG (double strand) [HSE2 probe]
- binding result: binds

Sequence: GCGCCGCGCGGCCCAGAACCTTCCGCCCCGGCCCCCGTCC (double strand) [HSE1 probe]
- binding result: binds
